PubChem BioAssay AID743454 – Peter MacCallum Cancer Centre – 2014

Purpose: 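Search for knock-downs that restore vorinostat killing in resistant colon cancer cells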 (primary screen)
Cells: human HCT116-VR colon cancer cells, selected for vorinostat resistance
Reagents: siRNA pool against human genes, 40 nM siRNA pool
Time to read-out: vorinostat for 24 h, read-out about 72 h after transfection
Treatment: vorinostat at 2.5 µM final
Measured: 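Two measures, CellTiter-Fluor viability and luminescent caspase 3/7 activity, each as fold change against same-plate mock wells, mean of duplicates, then screen-wide robust z-score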
Reading the numbers: viability robust z-score: higher = more viable cells than screen typical; caspase robust z-score: higher = more caspase 3/7 activity than screen typical
Active means: 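Hits are knock-downs in viability class RV1/RV2 or caspase class CA1/CA2, excluding ones that killed cells in the no-drug cell-count arm; hits then retested with single siRNAs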
This is one part, drawn at random, of about 18,000 deposited reagents. 450 of all reagents (2.5%) count as active. 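Single biological run; no consistent viability z cut-off exists, so the class columns, not z-scores, define the calls.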

Knock-down of VMA21 (vacuolar ATPase assembly factor VMA21) resulted in: viability hit class no change; caspase hit class no change; viability robust z-score 0.49; caspase robust z-score -0.05; inactive.
Against RBM48 (RNA binding motif protein 48), the values are viability hit class no change; caspase hit class no change; viability robust z-score 0.02; caspase robust z-score -1.24; inactive.
After knock-down of PRSS55 (serine protease 55), the record shows viability hit class no change; caspase hit class no change; viability robust z-score 0.4; caspase robust z-score 1.84; inactive.
Against SLC30A10, the values are viability hit class no change; caspase hit class no change; viability robust z-score -0.32; caspase robust z-score -0.3; inactive.
With knock-down of SLC36A4, the record shows viability hit class no change; caspase hit class no change; viability robust z-score 0.78; caspase robust z-score -0.38; inactive.
Against HIVEP3 (HIVEP zinc finger 3), the entry reads viability hit class no change; caspase hit class no change; viability robust z-score 1.22; caspase robust z-score -0.12; inactive.
With knock-down of COL4A6 (collagen type IV alpha 6 chain), the record shows viability hit class no change; caspase hit class no change; viability robust z-score 1.22; caspase robust z-score -0.26; inactive.
With knock-down of SYP (synaptophysin) the results were viability hit class no change; caspase hit class no change; viability robust z-score -0.01; caspase robust z-score -0.94; inactive.
LPGAT1 (lysophosphatidylglycerol acyltransferase 1) showed viability hit class no change; caspase hit class no change; viability robust z-score 0.84; caspase robust z-score 0.48; inactive.

Records listed so far whose gene name begins with S or s:
SLC30A10 — viability hit class: no change; caspase hit class: no change; viability robust z-score: -0.32; caspase robust z-score: -0.3; activity call: inactive
SLC36A4 — viability hit class: no change; caspase hit class: no change; viability robust z-score: 0.78; caspase robust z-score: -0.38; activity call: inactive
SYP (synaptophysin) — viability hit class: no change; caspase hit class: no change; viability robust z-score: -0.01; caspase robust z-score: -0.94; activity call: inactive

The list goes on.
After knock-down of LSS (lanosterol synthase) the results were viability hit class no change; caspase hit class no change; viability robust z-score 0.48; caspase robust z-score -0.18; inactive.
KIF2A (kinesin family member 2A) gave viability hit class no change; caspase hit class no change; viability robust z-score -0.96; caspase robust z-score -0.38; inactive.
PPT1 (palmitoyl-protein thioesterase 1) showed viability hit class no change; caspase hit class no change; viability robust z-score 1.27; caspase robust z-score -0.24; inactive.
Knock-down of C12orf43 (chromosome 12 open reading frame 43) resulted in: viability hit class no change; caspase hit class no change; viability robust z-score -1.23; caspase robust z-score 2.59; inactive.
Against TNFRSF11B (TNF receptor superfamily member 11b), the entry reads viability hit class no change; caspase hit class no change; viability robust z-score -1.29; caspase robust z-score 2.85; inactive.
